Results deposited as PubChem BioAssay AID1259405 (NCATS, 2018).
In all, the deposit lists about 50,000 reagents; below is a part drawn at random. About 4,000 of them (8%) were called active. 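Mouse siRNA library applied to hamster cells; one well for each siRNA.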 A number with no mark means an inactive call. Reagents against one gene are numbered here. Further read-outs or replicates are left out here.

Purpose: 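Knock-downs that lift recombinant protein yield in hamster ovary cells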 (primary screen)
Cells: Chinese hamster CHO-K1 ovary cells with stable secreted eGFP expression
Reagents: single siRNA against mouse genes, 0.8 pmol siRNA per well (2 µl of 400 nM stock)
Time to read-out: 3 days
Read-out: 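Percent of the per-plate non-targeting control median for intracellular GFP per well by laser scanning cytometry and for cell viability by ATP luminescence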
Scale: GFP, % of control: higher = more GFP per well, higher productivity
Active means: 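a knock-down is called active if GFP reaches 120% or more of non-targeting control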

GFP, % of control, by gene and reagent
Vmn1r81: #1 37.3; #2 74.8; #3 83.4
Magi3: #1 93.9; #2 80.1; #3 80.8
Prl3b1: #1 56.6; #2 76.8; #3 94.2
Usp47: #1 26.9; #2 66; #3 116
Ubxn4: #1 90.5; #2 72.6; #3 100
Rgs13: #1 114; #2 62.7; #3 34.5
Nras: #1 61.8; #2 97.4; #3 40.7
Phgdh: #1 132 (active); #2 78.8; #3 62.2
Snapc4: #1 101; #2 75.5; #3 73.7
Cbll1: #1 24; #2 105; #3 90.7
Triml1: #1 70.1; #2 87.6; #3 30.3
Rasgrp4: #1 73.5; #2 75.4; #3 24.4
Numbl: #1 84.1; #2 70.2; #3 93
Ttc3: #1 61.2; #2 60.8; #3 99.8
Fundc2b: #1 49.2; #2 48.4; #3 69.8
St3gal2: #1 104; #2 46.1; #3 117
Vmn1r236: #1 34.4; #2 110; #3 48.2
Nup35: #1 103; #2 78.7; #3 67.5
Snrnp27: #1 68.5; #2 97.1; #3 56.2
Slc22a30: #1 86.3; #2 45.5; #3 51.4
Ywhag: #1 114; #2 58.6; #3 55.4
Ap3s2: #1 120 (active); #2 44; #3 86.5
Cyth1: #1 68.4; #2 97.7; #3 71.9
Vmn1r52: #1 54.7; #2 93.9; #3 59.5
Rreb1: #1 57; #2 90.9; #3 80.4
Rabgap1: #1 96.2; #2 102; #3 52.2
Zfp697: #1 61.5; #2 104
Gar1: #1 60.9; #2 97.2; #3 116
Uqcrq: #1 75.8; #2 95.8; #3 61.8

Sorted by “GFP, % of control” (ascending): some entries from above.
gene	reagent no.	GFP, % of control
Vmn1r236	1	34.4
St3gal2	2	46.1
Fundc2b	2	48.4
Fundc2b	1	49.2
Ttc3	2	60.8
Fundc2b	3	69.8
Ttc3	3	99.8
St3gal2	1	104
Vmn1r236	2	110
St3gal2	3	117
